Data on one molecule can be found in patent US20240076371A1, “COMPOSITIONS AND METHODS FOR TREATING OSTEOARTHRITIS, RHEUMATOID ARTHRITIS, AND JOINT AND TENDON DISORDERS” (BOARD OF REGENTS, THE UNIVERSITY OF TEXAS SYSTEM, priority 2021, published 2024).

This data set deals with knee joint region (synovium). Nature of the data set: In vivo antibody binding pattern in the knee joint (immunofluorescence). More on the design: species or system mouse. To be noted: 25 mg/kg i.p. From the text: Immunofluorescent staining. The isolated femur and tibia bones were fixed in 4% paraformaldehyde for 2 days prior to decalcification with 10% EDTA (pH 7.5) for 3 weeks, and then dehydrated in 30% sucrose/PBS for 3 days. Samples were embedded in the Tissue-Tek CRYO OCT compound (Thermo Fisher Scientific, Pittsburgh, PA, USA), and 12-μm-thick sections were collected on glass slides. Sections were blocked and permeabilized with 2% goat serum, 2% fish skin gelatin, 0.025% Triton X-100 and 1% bovine serum albumin in PBS. The sections were incubated overnight at 4° C. with affinity-purified antibodies against Cx43 (CT) (1:100) (Cherian P P, et al. The Journal of biological chemistry. 2003; 278(44):43146-56), for 1 hour with the appropriate secondary antibody. Slides were mounted using Vectashield mounting medium (H-1000, Vector Lab). Confocal fluorescence imaging was performed using a confocal laser scanning microscope (LSM770, Carl Zeiss, Oberkochen, Germany).
M1 antibody binds to synovium and inhibits hemichannel opening in OA. Due to the dense nature of cartilage and large size of antibodies, a widely held perception is that antibodies are unable to penetrate the cartilage matrix. To determine the antibody binding pattern in the knee joint region, M1 antibody (25 mg/kg) with human IgG epitope or saline was intraperitoneally (i.p.) injected at 30 mins after DMM surgery. […]

B1: M1 antibody: antibody with variable heavy chain SEQ ID NO: 58 and variable light chain SEQ ID NO: 60; inhibits or blocks opening of Cx43 hemichannel (antibody, V domains shown)
VH: EVQLQQPGAELVKPGASVKLSCKASGYTFTSYYMYWVKQRPGQGLEWIGGINPSNGGTNFNEKFKNKATLTVDKSSSTAYMQLSSLTSEDSAVYYCTREGNPYYTMNYWGQGTSVTVSS
VL: DIVMTQSPSSLSVSAGEKVTMSCKSSQSLLNSGNQKTYLAWYQQKPGQPPKLLIYGASTRESGVPDRFTGSGSGTDFTLTISSVQAEDLAVYYCQNDHSYPFTFGSGTKLEIK
In the case of B1, the “co-localization with macrophage marker CD68” value is reported as “co-localized with CD68” and the “co-localization with synovial fibroblast marker Periostin” value is recorded as “co-localization”.
